Measured values as given in paper PMC8584173, “The Cytotoxic Effect of Copper (II) Complexes with Halogenated 1,3-Disubstituted Arylthioureas on Cancer and Bacterial Cells” (International Journal of Molecular Sciences, 2021).

Legend:
Format in all cases: cell-based
[1] = system: SW620 (human metastatic colon cancer); test: MTT cytotoxicity assay, SW620; settings: IC50 for normal cell line (HaCaT)/IC50 SW620
Protocol: (§1) The human primary (SW480), metastatic (SW620) colon cancer, metastatic prostate cancer (PC3) and human immortal keratinocyte (HaCaT) cell lines were purchased from the American Type Culture Collection (ATCC, Rockville, USA). The cells were cultured in medium according to protocols (MEM for SW480 and SW620, RPMI 1640 for PC3 and DMEM for HaCaT cells) supplemented with 10% fetal bovine serum (FBS), penicillin (100 U/mL) and streptomycin (100 μg/mL) and cultured in 37 °C/ 5% CO2 humidified incubator. The cells were cultured until appropriate confluence was achieved (80–90%). Next, they were harvested by treatment with 0.25% trypsin (Gibco Life Technologies, USA) and used for studies.
(§2) Cells without studied compounds in medium were used as a control.
(§3) The cell viability was assessed by determination of MTT salt (3-(4,5-dimethylthiazol-2-yl)-2,5-diphenyltetrazolium bromide) conversion by mitochondrial dehydrogenase. MTT assay was performed as previously described. Experiments were repeated three times. Cell viability was presented as a percentage of MTT reduction in the treated cells versus the control cells. Number of viable cells cultured without studied compounds was assumed to be 100%. Decreased relative MTT level means decreased cell viability.

[2] = system: SW480 (human primary colon cancer); test: MTT cytotoxicity assay, SW480; settings: IC50 for normal cell line (HaCaT)/IC50 SW480
Protocol: as §1, §2
as §3, with “viability. Thiourea complexes with the highest cytotoxic potential assessed by MTT determination (with the lowest IC50) were chosen for subsequent assessments of cytotoxicity mechanisms.” for “viability.”

[3] = system: PC3 (human metastatic prostate cancer); test: MTT cytotoxicity assay, PC3; settings: IC50 for normal cell line (HaCaT)/IC50 PC3
Protocol: as §1, §2
as §3, with “viability. Thiourea complexes with the highest cytotoxic potential assessed by MTT determination (with the lowest IC50) were chosen for subsequent assessments of cytotoxicity mechanisms.” for “viability.”

SMILES | SI (selectivity index) [1] | SI (selectivity index) [2] | SI (selectivity index) [3]
O=[N+]([O-])c1cc([N+]2=C(Nc3ccc(I)cc3)[S][Cu-2]23[S]C(Nc2ccc(I)cc2)=[N+]3c2ccc(Cl)c([N+](=O)[O-])c2)ccc1Cl [Compound 8, Copper (II) complex with 1-(4-iodophenyl)-3-(4-chloro-3-nitrophenyl)thiourea] | 5.7 | 26.3 | 23.8
O=[N+]([O-])c1cc(NC2=[N+](c3ccc(Cl)c([N+](=O)[O-])c3)[Cu-2]3([S]2)[S]C(Nc2ccc(Cl)c([N+](=O)[O-])c2)=[N+]3c2ccc(Cl)c([N+](=O)[O-])c2)ccc1Cl [Compound 6, Copper (II) complex with 1,3-bis(4-chloro-3-nitrophenyl)thiourea] | 5.7 | 4.6 | 6.1
O=[N+]([O-])c1cc([N+]2=C(Nc3ccccc3Br)[S][Cu-2]23[S]C(Nc2ccccc2Br)=[N+]3c2ccc(Cl)c([N+](=O)[O-])c2)ccc1Cl [Compound 1, Copper (II) complex with 1-(2-bromophenyl)-3-(4-chloro-3-nitrophenyl)thiourea] | 33.2 | 23.2 | 11.5
O=[N+]([O-])c1cc([N+]2=C(Nc3ccc(Cl)c(Cl)c3)[S][Cu-2]23[S]C(Nc2ccc(Cl)c(Cl)c2)=[N+]3c2ccc(Cl)c([N+](=O)[O-])c2)ccc1Cl [Compound 5, Copper (II) complex with 1-(4-chloro-3-nitrophenyl)-3-(3,4-dichlorophenyl)thiourea] | 15.2 | 8.1 | 14.4
O=[N+]([O-])c1cc([N+]2=C(Nc3cccc(Br)c3)[S][Cu-2]23[S]C(Nc2cccc(Br)c2)=[N+]3c2ccc(Cl)c([N+](=O)[O-])c2)ccc1Cl [Compound 2, Copper (II) complex with 1-(3-bromophenyl)-3-(4-chloro-3-nitrophenyl)thiourea] | 7.5 | 6.8 | 8.7
O=[N+]([O-])c1cc([N+]2=C(Nc3ccc(F)c(Cl)c3)[S][Cu-2]23[S]C(Nc2ccc(F)c(Cl)c2)=[N+]3c2ccc(Cl)c([N+](=O)[O-])c2)ccc1Cl [Compound 4, Copper (II) complex with 1-(3-chloro-4-fluorophenyl)-3-(4-chloro-3-nitrophenyl)thiourea] | 5.7 | 6.3 | 5.2
O=[N+]([O-])c1cc([N+]2=C(Nc3ccccc3F)[S][Cu-2]23[S]C(Nc2ccccc2F)=[N+]3c2ccc(Cl)c([N+](=O)[O-])c2)ccc1Cl [Compound 7, Copper (II) complex with 1-(2-fluorophenyl)-3-(4-chloro-3-nitrophenyl)thiourea] | 12.8 | 8.9 | –
O=[N+]([O-])c1cc([N+]2=C(Nc3ccc(Br)cc3)[S][Cu-2]23[S]C(Nc2ccc(Br)cc2)=[N+]3c2ccc(Cl)c([N+](=O)[O-])c2)ccc1Cl [Compound 3, Copper (II) complex with 1-(4-bromophenyl)-3-(4-chloro-3-nitrophenyl)thiourea] | 5.3 | 8.6 | 11.7
